Measurements taken from the supplement of paper PMC10849652.
The other results are listed elsewhere or left out.

Amino acid sequences for entries named in this document (tags omitted). A change or cut given only in a name is not applied to a line headed by its entry.
UniProt Q8IYK4: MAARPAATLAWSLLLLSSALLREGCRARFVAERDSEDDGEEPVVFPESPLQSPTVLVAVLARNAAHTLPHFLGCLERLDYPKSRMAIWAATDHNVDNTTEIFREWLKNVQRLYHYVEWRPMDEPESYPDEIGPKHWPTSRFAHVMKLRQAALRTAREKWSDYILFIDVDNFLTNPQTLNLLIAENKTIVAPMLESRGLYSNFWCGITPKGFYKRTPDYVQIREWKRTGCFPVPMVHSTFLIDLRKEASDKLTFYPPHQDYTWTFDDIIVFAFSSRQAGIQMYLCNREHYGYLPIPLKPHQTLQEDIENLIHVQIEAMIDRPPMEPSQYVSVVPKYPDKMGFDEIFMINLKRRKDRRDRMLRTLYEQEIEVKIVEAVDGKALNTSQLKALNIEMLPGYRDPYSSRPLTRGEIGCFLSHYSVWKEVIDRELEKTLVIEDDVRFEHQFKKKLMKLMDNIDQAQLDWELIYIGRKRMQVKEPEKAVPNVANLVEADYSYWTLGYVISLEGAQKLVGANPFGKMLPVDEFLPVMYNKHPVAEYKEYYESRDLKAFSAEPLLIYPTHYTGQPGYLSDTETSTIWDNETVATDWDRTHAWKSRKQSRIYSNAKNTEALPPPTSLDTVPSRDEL
UniProt P35606: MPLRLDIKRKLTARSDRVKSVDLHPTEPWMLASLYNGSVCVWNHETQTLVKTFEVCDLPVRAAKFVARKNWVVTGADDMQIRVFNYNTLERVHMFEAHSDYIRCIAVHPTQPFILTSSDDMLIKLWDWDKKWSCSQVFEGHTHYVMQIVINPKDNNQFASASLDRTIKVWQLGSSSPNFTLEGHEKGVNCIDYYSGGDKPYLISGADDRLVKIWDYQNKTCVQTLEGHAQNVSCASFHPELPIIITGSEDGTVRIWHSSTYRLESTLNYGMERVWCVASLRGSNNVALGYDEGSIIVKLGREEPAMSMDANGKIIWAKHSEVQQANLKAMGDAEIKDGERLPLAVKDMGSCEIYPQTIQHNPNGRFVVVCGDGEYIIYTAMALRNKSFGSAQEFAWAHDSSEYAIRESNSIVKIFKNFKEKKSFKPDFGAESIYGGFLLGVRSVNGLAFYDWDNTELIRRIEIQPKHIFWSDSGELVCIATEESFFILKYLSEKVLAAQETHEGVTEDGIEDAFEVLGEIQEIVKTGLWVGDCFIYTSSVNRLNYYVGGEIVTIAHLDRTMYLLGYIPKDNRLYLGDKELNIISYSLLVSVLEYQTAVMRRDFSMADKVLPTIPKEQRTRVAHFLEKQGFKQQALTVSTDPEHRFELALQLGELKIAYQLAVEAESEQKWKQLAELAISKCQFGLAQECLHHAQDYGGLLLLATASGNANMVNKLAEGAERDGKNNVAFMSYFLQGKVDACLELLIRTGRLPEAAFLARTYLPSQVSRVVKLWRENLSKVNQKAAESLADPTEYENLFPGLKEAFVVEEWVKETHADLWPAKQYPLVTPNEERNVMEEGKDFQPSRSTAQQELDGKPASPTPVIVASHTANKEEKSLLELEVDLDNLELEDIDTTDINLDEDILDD
UniProt Q92905, whole entry, looked up: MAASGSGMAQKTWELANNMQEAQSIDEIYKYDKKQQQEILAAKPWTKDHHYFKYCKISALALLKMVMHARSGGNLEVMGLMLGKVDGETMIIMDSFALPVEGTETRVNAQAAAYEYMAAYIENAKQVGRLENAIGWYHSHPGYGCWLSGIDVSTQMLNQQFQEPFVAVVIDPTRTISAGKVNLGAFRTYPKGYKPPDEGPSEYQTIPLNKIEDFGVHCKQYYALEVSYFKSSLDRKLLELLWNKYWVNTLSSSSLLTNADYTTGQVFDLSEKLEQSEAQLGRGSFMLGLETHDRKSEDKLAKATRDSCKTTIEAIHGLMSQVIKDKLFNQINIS
UniProt Q9UBW8: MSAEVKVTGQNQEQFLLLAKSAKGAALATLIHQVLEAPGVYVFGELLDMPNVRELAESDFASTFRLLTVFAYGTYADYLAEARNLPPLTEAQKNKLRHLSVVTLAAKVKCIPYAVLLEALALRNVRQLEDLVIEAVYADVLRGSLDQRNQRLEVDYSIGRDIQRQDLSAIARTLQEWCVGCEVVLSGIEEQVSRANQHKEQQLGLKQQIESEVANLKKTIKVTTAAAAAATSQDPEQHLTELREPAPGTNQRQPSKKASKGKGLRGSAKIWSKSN
UniProt P51911: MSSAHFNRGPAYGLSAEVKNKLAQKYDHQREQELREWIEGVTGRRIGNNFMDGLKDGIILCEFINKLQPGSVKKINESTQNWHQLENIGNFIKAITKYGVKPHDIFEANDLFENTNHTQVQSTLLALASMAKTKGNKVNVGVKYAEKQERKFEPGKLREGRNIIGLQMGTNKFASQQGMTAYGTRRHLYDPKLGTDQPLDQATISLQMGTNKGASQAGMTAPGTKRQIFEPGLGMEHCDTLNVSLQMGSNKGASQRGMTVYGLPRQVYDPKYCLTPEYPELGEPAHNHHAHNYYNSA
UniProt Q9H9E3: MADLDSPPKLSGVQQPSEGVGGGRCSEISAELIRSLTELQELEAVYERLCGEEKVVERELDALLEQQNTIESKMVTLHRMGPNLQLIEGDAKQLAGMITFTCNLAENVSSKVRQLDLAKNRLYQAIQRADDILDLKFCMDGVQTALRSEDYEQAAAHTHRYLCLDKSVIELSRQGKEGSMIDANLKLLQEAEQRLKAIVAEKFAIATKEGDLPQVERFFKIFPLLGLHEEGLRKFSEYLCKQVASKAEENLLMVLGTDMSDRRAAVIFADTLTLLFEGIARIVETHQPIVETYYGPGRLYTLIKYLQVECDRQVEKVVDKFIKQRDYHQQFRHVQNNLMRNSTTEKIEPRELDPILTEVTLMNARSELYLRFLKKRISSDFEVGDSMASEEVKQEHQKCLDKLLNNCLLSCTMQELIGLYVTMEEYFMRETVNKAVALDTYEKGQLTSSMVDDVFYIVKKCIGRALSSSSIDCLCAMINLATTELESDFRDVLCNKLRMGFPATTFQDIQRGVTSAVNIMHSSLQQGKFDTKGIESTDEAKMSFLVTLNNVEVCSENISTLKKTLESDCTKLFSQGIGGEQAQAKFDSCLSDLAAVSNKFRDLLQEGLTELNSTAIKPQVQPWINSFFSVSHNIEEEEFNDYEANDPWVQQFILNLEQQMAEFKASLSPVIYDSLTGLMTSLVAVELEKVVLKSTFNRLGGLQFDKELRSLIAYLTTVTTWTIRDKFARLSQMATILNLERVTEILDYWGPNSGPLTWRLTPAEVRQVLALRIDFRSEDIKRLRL
UniProt P10606, whole entry, looked up: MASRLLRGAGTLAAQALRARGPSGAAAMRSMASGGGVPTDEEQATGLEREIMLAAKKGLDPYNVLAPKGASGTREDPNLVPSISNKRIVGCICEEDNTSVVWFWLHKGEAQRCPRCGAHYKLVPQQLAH
UniProt Q9BSW2: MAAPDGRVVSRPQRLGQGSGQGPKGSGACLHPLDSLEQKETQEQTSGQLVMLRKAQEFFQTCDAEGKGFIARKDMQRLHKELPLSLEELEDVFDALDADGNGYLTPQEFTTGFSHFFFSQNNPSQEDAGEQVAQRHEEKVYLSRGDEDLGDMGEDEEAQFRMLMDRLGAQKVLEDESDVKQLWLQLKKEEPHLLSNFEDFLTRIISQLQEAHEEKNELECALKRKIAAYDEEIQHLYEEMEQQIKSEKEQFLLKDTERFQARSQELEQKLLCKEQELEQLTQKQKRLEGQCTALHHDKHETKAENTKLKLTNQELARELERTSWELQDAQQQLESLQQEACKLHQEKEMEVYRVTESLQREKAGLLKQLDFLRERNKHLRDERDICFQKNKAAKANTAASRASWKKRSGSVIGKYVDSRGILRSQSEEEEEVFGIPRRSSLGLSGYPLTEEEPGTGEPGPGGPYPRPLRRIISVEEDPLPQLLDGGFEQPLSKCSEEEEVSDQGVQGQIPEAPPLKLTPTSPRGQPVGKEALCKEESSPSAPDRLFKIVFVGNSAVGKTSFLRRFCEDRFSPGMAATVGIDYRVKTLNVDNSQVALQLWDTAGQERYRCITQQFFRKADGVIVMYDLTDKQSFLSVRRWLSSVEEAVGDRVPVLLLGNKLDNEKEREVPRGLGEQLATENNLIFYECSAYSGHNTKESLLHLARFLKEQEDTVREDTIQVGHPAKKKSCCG
UniProt Q9UBI1, whole entry, looked up: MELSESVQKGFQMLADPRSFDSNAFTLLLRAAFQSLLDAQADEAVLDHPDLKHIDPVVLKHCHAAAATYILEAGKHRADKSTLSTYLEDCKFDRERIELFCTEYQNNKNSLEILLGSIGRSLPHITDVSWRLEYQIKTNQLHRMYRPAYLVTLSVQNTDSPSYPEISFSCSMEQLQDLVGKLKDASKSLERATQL
UniProt Q9P003: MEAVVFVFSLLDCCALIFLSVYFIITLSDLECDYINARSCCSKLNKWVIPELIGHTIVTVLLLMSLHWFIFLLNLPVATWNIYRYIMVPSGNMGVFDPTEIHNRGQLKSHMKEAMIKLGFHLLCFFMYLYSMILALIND
UniProt Q9Y2Z9: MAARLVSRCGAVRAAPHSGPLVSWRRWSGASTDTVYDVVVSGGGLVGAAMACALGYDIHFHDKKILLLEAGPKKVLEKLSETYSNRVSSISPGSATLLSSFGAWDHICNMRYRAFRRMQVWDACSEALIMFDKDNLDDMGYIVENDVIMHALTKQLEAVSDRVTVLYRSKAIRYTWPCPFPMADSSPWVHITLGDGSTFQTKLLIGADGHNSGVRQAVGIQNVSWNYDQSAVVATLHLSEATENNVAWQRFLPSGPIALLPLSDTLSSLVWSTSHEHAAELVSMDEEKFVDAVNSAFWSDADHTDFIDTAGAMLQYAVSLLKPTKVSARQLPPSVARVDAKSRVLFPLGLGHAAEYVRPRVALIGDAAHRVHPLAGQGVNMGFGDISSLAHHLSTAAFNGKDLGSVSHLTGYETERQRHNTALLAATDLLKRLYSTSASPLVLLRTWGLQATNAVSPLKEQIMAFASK
UniProt Q9Y678: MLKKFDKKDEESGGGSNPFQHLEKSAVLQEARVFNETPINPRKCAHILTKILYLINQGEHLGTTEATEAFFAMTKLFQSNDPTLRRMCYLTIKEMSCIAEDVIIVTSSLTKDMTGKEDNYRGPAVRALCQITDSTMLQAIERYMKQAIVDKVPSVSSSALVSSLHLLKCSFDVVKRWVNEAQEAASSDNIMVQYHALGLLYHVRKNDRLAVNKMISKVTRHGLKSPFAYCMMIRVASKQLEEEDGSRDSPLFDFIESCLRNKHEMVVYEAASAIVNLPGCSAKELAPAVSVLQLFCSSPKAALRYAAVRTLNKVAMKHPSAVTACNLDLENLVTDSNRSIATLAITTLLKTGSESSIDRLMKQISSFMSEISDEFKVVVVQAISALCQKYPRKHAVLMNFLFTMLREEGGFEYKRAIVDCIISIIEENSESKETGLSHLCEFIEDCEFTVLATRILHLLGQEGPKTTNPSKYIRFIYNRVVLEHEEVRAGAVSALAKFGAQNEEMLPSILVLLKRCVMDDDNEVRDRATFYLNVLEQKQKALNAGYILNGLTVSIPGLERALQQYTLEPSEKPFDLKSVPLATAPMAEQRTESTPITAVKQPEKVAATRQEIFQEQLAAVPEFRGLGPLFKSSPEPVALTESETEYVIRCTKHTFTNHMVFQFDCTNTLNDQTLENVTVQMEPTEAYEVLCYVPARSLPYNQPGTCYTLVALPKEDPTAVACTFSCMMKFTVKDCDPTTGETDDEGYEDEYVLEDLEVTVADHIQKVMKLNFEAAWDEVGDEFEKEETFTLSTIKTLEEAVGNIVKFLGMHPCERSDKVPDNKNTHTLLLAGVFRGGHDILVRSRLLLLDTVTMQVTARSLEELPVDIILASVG
UniProt P61201: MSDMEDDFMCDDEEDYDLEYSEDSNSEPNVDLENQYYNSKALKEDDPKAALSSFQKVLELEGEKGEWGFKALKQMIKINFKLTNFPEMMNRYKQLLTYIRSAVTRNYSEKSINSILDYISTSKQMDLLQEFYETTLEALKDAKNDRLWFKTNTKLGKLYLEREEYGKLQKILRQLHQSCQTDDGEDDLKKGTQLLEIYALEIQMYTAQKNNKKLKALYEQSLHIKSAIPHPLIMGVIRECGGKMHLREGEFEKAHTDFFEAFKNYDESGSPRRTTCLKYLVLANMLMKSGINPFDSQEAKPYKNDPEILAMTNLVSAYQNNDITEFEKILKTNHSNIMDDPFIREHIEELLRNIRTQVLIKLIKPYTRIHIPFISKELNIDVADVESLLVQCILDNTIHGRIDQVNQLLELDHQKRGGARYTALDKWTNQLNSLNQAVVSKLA
UniProt Q5HYK3: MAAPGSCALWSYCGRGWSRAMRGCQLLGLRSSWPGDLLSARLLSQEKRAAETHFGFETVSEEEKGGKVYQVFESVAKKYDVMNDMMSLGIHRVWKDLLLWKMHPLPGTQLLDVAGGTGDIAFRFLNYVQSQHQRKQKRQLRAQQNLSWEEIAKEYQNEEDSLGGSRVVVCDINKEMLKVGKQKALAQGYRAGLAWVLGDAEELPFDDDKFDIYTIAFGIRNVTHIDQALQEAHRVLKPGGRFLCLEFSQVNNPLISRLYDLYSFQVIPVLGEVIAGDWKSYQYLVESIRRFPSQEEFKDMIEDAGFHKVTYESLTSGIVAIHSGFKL

Experiments:
Assay in all cases: log2 fold change, soluble protein after heating vs DMSO (PISA); higher = thermal stabilisation; K562 lysate, 10 uM; active = over 0.2 and 3.5 SD of the protein, either way, in both replicates (recomputed)
erlotinib = compound: C#Cc1cccc(Nc2ncnc3cc(OCCOC)c(OCCOC)cc23)c1 [erlotinib]
How it was run: (§1)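 Thermal stability, expressed as log-two fold change relative to solvent controls, is given from duplicates. Crude K562 extract in PBS pH 7.4 with 1 mM MgCl2, at 1 mg/mL protein, was treated with 10 μM compound for 30 min and heated in aliquots for 3 min across 48°C-58°C. After pooling, adjustment to 0.5% NP-40 at 4°C and centrifugation at 21,000xg for 90 min, supernatant protein was measured by TMTpro 16plex LC-MS/MS with channel sums equalised.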

[1] = compound: C/C(=N\NC(=O)C1=CC(=CC=C1)S(=O)(=O)N2CCOCC2)/C3=C(C=CC(=C3)Cl)O
How it was run: as §1

[2] = compound: C1=CC(=CC=C1C2=NC3=C(N2)C=C(C=C3)C(=O)N)OC4=CC=C(C=C4)Cl
How it was run: as §1

[3] = compound: C1=CC2=C(C=CC(=C2)/C=C\3/C(=O)NC(=NCC4=CC=CS4)S3)N=C1
How it was run: as §1

[4] = compound: C1=CC2=NC=CN=C2C=C1/C=C/3\C(=O)NC(=O)S3
How it was run: as §1

[5] = compound: C1=CC=C(C=C1)C2=NC(=C(N2)C3=CC=NC=C3)C4=CC(=C(C=C4)Cl)O
How it was run: as §1

[6] = compound: C1=CC=C2C(=C1)C3=NNC4=CC=CC(=C43)C2=O
How it was run: as §1

[7] = compound: C1CCN(C1)C(=O)NC2=CC=CC(=C2)NC3=NC=C(C(=N3)NCCC4=CN=CN4)Br
How it was run: as §1

[8] = compound: C1CN(CCC1(CC2=CC=C(C=C2)Cl)N)C3=NC=NC4=C3C=CN4
How it was run: as §1

IRAK-1-4 Inhibitor I = compound: C1COCCN1CCN2C3=CC=CC=C3N=C2NC(=O)C4=CC(=CC=C4)[N+](=O)[O-] [IRAK-1-4 Inhibitor I]
How it was run: as §1

ibrutinib = compound: C=CC(=O)N1CCC[C@@H](n2nc(-c3ccc(Oc4ccccc4)cc3)c3c(N)ncnc32)C1 [ibrutinib]
How it was run: as §1

[9] = compound: CC(=O)c1cnc2ccc(-c3cc(Cl)c(O)c(Cl)c3)nc2c1N[C@H]1CC[C@H](CN(C)C)CC1
How it was run: as §1

ralimetinib = compound: CC(C)(C)Cn1c(N)nc2ccc(-c3[nH]c(C(C)(C)C)nc3-c3ccc(F)cc3)nc21 [ralimetinib]
How it was run: as §1

[10] = compound: CC(C)(O)CC(=O)NCCn1ccc2ncnc(Nc3ccc(Oc4cccc(C(F)(F)F)c4)c(Cl)c3)c21
How it was run: as §1

[11] = compound: CC(C)C1=C2N=C(C=C(N2N=C1)NCC3=CC=CC=C3)NCCCCCCN
How it was run: as §1

[12] = compound: CC1=C(C(CC(=O)N1)C2=CC=C(C=C2)C(F)(F)F)C(=O)NC3=C(C=C4C(=C3)C=NN4)F
How it was run: as §1

[13] = compound: CC1=C(C2=C(C=C1)C(=O)C3=CC=CC=C3N2CCCN)C
How it was run: as §1

[14] = compound: CC1=C(C=C(C=C1)NC(=O)C2=CC(=CC=C2)C(C)(C)C#N)NC3=CC4=C(C=C3)N=CN(C4=O)C
How it was run: as §1

[15] = compound: CC1=C(C=C(C=C1)NC(=O)C2=CC(=CC=C2)N(C)C)NC(=O)C3=CC=C(C=C3)O
How it was run: as §1

[16] = compound: CC1=CC=C(C=C1)SC2=C3C=C(SC3=CN=C2)C(=O)N
How it was run: as §1

Measured: log2 fold change

COLGALT2 (UniProt Q8IYK4)
inactive: erlotinib -0.004 | [1] -0.051 | [2] -0.03 | [3] 0.012 | [4] 0 | [5] -0.006 | [6] -0.013 | [7] -0.022 | [8] -0.006 | IRAK-1-4 Inhibitor I -0.026 | ibrutinib 0.033 | [9] 0.064 | ralimetinib 0.006 | [10] 0.027 | [11] -0.003 | [12] 0.011 | [13] -0.018 | [14] -0.092 | [15] -0.005 | [16] 0.037

COPB2 (UniProt P35606)
inactive: erlotinib -0.012 | [1] 0.017 | [2] 0.003 | [3] 0.019 | [4] 0.008 | [5] -0.006 | [6] -0.004 | [7] -0.006 | [8] -0.004 | IRAK-1-4 Inhibitor I 0.001 | ibrutinib -0.015 | [9] -0.004 | ralimetinib -0.003 | [10] -0.022 | [11] -0.005 | [12] -0.008 | [13] -0.005 | [14] 0.026 | [15] -0.003 | [16] -0.009

COPS5 (UniProt Q92905)
inactive: erlotinib 0.003 | [1] -0.007 | [2] -0.007 | [3] -0.005 | [4] 0 | [5] -0.006 | [6] 0.029 | [7] -0.005 | [8] -0.016 | IRAK-1-4 Inhibitor I 0.011 | ibrutinib 0.029 | [9] -0.003 | ralimetinib 0 | [10] -0.064 | [11] 0.024 | [12] -0.018 | [13] -0.007 | [14] 0.015 | [15] -0.013 | [16] 0.022

COPS7A (UniProt Q9UBW8)
inactive: erlotinib -0.058 | [1] -0.003 | [2] -0.004 | [3] -0.042 | [4] -0.041 | [5] -0.014 | [6] -0.028 | [7] -0.003 | [8] -0.054 | IRAK-1-4 Inhibitor I -0.003 | ibrutinib -0.011 | [9] -0.009 | ralimetinib 0.027 | [10] -0.002 | [11] -0.05 | [12] -0.015 | [13] -0.003 | [14] 0.004 | [15] 0.004 | [16] -0.024

CNN1 (UniProt P51911)
inactive: erlotinib 0.018 | [1] -0.011 | [2] 0.063 | [3] 0.126 | [4] -0.047 | [5] 0.009 | [6] -0.05 | [7] -0.079 | [8] -0.031 | IRAK-1-4 Inhibitor I -0.064 | ibrutinib 0.006 | [9] -0.055 | ralimetinib 0.076 | [10] 0.068 | [11] 0.015 | [12] 0.029 | [13] 0.037 | [14] 0.01 | [15] -0.002 | [16] 0.004

CNOT11 (UniProt Q9UKZ1)
inactive: erlotinib 0.014 | [1] 0.015 | [2] -0.003 | [3] 0.002 | [4] 0.025 | [5] -0.002 | [6] -0.05 | [7] -0.014 | [8] 0.025 | IRAK-1-4 Inhibitor I 0.018 | ibrutinib -0.062 | [9] 0.006 | ralimetinib -0.019 | [10] -0.051 | [11] -0.035 | [12] -0.016 | [13] -0.013 | [14] 0.039 | [15] 0.072 | [16] -0.007

COG4 (UniProt Q9H9E3)
inactive: erlotinib 0.029 | [1] -0.015 | [2] -0.05 | [3] -0.015 | [4] -0.018 | [5] 0.008 | [6] -0.057 | [7] 0.011 | [8] 0.039 | IRAK-1-4 Inhibitor I 0.009 | ibrutinib 0.014 | [9] 0.005 | ralimetinib -0.007 | [10] -0.042 | [11] -0.029 | [12] 0 | [13] -0.001 | [14] -0.049 | [15] -0.033 | [16] 0

COMMD5 (UniProt Q9GZQ3)
inactive: erlotinib 0.03 | [1] 0.003 | [2] -0.009 | [3] -0.008 | [4] 0.048 | [5] -0.028 | [6] -0.031 | [7] 0.08 | [8] -0.151 | IRAK-1-4 Inhibitor I -0.007 | ibrutinib 0.031 | [9] -0.009 | ralimetinib 0.016 | [10] -0.053 | [11] -0.036 | [12] 0.031 | [13] -0.025 | [14] 0.013 | [15] -0.008 | [16] -0.005

COX5B (UniProt P10606)
inactive: erlotinib 0.059 | [1] 0.046 | [2] -0.054 | [3] 0.056 | [4] -0.034 | [5] 0.007 | [6] 0.076 | [7] -0.001 | [8] 0.094 | IRAK-1-4 Inhibitor I -0.014 | ibrutinib 0.113 | [9] -0.074 | ralimetinib -0.041 | [10] 0.086 | [11] -0.025 | [12] -0.046 | [13] -0.027 | [14] 0.13 | [15] 0.034 | [16] 0.069

CRACR2A isoform 2 (UniProt Q9BSW2)
inactive: erlotinib -0.075 | [1] 0.08 | [2] 0.04 | [3] 0.035 | [4] 0.001 | [5] -0.056 | [6] -0.208 | [7] -0.075 | [8] 0.041 | IRAK-1-4 Inhibitor I -0.011 | ibrutinib -0.055 | [9] 0.046 | ralimetinib -0.028 | [10] -0.064 | [11] -0.04 | [12] -0.054 | [13] -0.072 | [14] -0.032 | [15] -0.013 | [16] 0.002

Retrieved one by one from above (two):
CRACR2A isoform 2 (UniProt Q9BSW2)
inactive: erlotinib -0.075 | [1] 0.08 | [2] 0.04 | [3] 0.035 | [4] 0.001 | [5] -0.056 | [6] -0.208 | [7] -0.075 | [8] 0.041 | IRAK-1-4 Inhibitor I -0.011 | ibrutinib -0.055 | [9] 0.046 | ralimetinib -0.028 | [10] -0.064 | [11] -0.04 | [12] -0.054 | [13] -0.072 | [14] -0.032 | [15] -0.013 | [16] 0.002

COX5B (UniProt P10606)
inactive: erlotinib 0.059 | [1] 0.046 | [2] -0.054 | [3] 0.056 | [4] -0.034 | [5] 0.007 | [6] 0.076 | [7] -0.001 | [8] 0.094 | IRAK-1-4 Inhibitor I -0.014 | ibrutinib 0.113 | [9] -0.074 | ralimetinib -0.041 | [10] 0.086 | [11] -0.025 | [12] -0.046 | [13] -0.027 | [14] 0.13 | [15] 0.034 | [16] 0.069

The results go on.

COMMD3 (UniProt Q9UBI1)
inactive: erlotinib 0.051 | [1] -0.098 | [2] -0.018 | [3] 0.072 | [4] -0.044 | [5] -0.01 | [6] -0.03 | [7] -0.018 | [8] 0.02 | IRAK-1-4 Inhibitor I -0.021 | ibrutinib -0.042 | [9] -0.051 | ralimetinib 0.009 | [10] -0.025 | [11] 0.015 | [12] 0.001 | [13] 0.023 | [14] 0.04 | [15] 0.026 | [16] 0.034

CNIH4 (UniProt Q9P003)
inactive: erlotinib 0.049 | [1] -0.139 | [2] -0.06 | [3] 0.129 | [4] -0.071 | [5] -0.022 | [6] -0.162 | [7] 0.01 | [8] -0.131 | IRAK-1-4 Inhibitor I -0.078 | ibrutinib 0.13 | [9] -0.014 | ralimetinib 0.006 | [10] -0.152 | [11] 0.278 | [12] 0.066 | [13] -0.115 | [14] -0.008 | [15] 0.211 | [16] -0.024

COQ6 (UniProt Q9Y2Z9)
inactive: erlotinib -0.009 | [1] -0.165 | [2] 0.045 | [3] 0.017 | [4] -0.033 | [5] 0.01 | [6] 0.013 | [7] 0.066 | [8] 0.05 | IRAK-1-4 Inhibitor I 0.002 | ibrutinib 0.041 | [9] -0.012 | ralimetinib 0.006 | [10] -0.135 | [11] -0.025 | [12] 0.082 | [13] 0.034 | [14] 0.036 | [15] 0.022 | [16] 0.005

COPG1 (UniProt Q9Y678)
inactive: erlotinib 0.006 | [1] -0.021 | [2] -0.002 | [3] -0.008 | [4] 0.005 | [5] 0.006 | [6] 0.002 | [7] -0.026 | [8] 0.01 | IRAK-1-4 Inhibitor I -0.001 | ibrutinib 0.007 | [9] -0.001 | ralimetinib -0.003 | [10] -0.011 | [11] -0.018 | [12] 0 | [13] 0.003 | [14] 0.008 | [15] 0 | [16] -0.003

COPS2 isoform 2 (UniProt P61201)
inactive: erlotinib -0.042 | [1] 0.037 | [2] -0.002 | [3] 0.002 | [4] 0.001 | [5] -0.006 | [6] 0.017 | [7] 0.034 | [8] 0.006 | IRAK-1-4 Inhibitor I -0.006 | ibrutinib -0.015 | [9] -0.016 | ralimetinib 0.012 | [10] 0.014 | [11] -0.019 | [12] -0.011 | [13] 0 | [14] -0.024 | [15] 0.007 | [16] 0.02

COQ5 (UniProt Q5HYK3)
inactive: erlotinib -0.012 | [1] -0.017 | [2] 0.013 | [3] 0.003 | [4] 0.028 | [5] -0.008 | [6] 0.034 | [7] -0.034 | [8] 0.003 | IRAK-1-4 Inhibitor I 0.038 | ibrutinib -0.004 | [9] -0.021 | ralimetinib 0.023 | [10] -0.067 | [11] 0.06 | [12] 0.018 | [13] 0.07 | [14] 0.028 | [15] 0.058 | [16] -0.05
